# From article PMC7884723
# By UniProt entry, the sequences of proteins in these tests, tags left out.
# UniProt Q9Y6Q9: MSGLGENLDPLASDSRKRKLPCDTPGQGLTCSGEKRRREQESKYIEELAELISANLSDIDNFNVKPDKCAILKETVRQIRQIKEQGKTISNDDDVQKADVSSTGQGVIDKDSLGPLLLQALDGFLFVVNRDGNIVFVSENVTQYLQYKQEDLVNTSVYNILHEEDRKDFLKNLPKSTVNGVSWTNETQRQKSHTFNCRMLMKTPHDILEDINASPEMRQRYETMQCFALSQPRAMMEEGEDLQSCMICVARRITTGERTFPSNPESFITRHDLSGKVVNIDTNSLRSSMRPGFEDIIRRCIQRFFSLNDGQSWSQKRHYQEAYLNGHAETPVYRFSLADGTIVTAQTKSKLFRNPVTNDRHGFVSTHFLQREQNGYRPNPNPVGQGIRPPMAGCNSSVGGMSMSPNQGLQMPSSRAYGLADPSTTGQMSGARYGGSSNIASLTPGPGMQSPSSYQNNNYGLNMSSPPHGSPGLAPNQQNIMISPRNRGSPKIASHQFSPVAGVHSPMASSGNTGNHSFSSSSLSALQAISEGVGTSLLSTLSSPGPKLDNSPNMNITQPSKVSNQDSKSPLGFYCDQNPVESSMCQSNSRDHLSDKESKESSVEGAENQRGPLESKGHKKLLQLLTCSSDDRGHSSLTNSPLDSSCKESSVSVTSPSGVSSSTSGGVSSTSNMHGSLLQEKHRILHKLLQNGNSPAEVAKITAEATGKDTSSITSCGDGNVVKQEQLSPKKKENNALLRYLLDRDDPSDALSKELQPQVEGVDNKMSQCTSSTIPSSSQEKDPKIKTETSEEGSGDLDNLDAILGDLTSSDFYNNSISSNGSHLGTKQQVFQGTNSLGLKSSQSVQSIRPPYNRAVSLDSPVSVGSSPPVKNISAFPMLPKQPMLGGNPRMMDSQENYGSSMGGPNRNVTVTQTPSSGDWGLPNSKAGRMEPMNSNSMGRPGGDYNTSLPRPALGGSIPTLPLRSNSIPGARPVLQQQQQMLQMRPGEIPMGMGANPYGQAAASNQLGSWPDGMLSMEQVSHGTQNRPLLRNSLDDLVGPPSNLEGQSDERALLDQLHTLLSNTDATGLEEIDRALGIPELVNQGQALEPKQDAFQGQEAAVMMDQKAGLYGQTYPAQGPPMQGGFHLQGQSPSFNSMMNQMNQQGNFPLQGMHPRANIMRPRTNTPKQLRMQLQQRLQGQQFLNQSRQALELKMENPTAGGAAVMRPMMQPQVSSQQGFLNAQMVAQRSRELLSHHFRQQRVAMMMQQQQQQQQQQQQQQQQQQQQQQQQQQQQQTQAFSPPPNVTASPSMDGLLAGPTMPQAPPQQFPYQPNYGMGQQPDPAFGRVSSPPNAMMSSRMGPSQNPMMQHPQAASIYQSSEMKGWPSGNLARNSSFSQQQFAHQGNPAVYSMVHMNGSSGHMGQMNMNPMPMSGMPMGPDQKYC
# UniProt Q09472: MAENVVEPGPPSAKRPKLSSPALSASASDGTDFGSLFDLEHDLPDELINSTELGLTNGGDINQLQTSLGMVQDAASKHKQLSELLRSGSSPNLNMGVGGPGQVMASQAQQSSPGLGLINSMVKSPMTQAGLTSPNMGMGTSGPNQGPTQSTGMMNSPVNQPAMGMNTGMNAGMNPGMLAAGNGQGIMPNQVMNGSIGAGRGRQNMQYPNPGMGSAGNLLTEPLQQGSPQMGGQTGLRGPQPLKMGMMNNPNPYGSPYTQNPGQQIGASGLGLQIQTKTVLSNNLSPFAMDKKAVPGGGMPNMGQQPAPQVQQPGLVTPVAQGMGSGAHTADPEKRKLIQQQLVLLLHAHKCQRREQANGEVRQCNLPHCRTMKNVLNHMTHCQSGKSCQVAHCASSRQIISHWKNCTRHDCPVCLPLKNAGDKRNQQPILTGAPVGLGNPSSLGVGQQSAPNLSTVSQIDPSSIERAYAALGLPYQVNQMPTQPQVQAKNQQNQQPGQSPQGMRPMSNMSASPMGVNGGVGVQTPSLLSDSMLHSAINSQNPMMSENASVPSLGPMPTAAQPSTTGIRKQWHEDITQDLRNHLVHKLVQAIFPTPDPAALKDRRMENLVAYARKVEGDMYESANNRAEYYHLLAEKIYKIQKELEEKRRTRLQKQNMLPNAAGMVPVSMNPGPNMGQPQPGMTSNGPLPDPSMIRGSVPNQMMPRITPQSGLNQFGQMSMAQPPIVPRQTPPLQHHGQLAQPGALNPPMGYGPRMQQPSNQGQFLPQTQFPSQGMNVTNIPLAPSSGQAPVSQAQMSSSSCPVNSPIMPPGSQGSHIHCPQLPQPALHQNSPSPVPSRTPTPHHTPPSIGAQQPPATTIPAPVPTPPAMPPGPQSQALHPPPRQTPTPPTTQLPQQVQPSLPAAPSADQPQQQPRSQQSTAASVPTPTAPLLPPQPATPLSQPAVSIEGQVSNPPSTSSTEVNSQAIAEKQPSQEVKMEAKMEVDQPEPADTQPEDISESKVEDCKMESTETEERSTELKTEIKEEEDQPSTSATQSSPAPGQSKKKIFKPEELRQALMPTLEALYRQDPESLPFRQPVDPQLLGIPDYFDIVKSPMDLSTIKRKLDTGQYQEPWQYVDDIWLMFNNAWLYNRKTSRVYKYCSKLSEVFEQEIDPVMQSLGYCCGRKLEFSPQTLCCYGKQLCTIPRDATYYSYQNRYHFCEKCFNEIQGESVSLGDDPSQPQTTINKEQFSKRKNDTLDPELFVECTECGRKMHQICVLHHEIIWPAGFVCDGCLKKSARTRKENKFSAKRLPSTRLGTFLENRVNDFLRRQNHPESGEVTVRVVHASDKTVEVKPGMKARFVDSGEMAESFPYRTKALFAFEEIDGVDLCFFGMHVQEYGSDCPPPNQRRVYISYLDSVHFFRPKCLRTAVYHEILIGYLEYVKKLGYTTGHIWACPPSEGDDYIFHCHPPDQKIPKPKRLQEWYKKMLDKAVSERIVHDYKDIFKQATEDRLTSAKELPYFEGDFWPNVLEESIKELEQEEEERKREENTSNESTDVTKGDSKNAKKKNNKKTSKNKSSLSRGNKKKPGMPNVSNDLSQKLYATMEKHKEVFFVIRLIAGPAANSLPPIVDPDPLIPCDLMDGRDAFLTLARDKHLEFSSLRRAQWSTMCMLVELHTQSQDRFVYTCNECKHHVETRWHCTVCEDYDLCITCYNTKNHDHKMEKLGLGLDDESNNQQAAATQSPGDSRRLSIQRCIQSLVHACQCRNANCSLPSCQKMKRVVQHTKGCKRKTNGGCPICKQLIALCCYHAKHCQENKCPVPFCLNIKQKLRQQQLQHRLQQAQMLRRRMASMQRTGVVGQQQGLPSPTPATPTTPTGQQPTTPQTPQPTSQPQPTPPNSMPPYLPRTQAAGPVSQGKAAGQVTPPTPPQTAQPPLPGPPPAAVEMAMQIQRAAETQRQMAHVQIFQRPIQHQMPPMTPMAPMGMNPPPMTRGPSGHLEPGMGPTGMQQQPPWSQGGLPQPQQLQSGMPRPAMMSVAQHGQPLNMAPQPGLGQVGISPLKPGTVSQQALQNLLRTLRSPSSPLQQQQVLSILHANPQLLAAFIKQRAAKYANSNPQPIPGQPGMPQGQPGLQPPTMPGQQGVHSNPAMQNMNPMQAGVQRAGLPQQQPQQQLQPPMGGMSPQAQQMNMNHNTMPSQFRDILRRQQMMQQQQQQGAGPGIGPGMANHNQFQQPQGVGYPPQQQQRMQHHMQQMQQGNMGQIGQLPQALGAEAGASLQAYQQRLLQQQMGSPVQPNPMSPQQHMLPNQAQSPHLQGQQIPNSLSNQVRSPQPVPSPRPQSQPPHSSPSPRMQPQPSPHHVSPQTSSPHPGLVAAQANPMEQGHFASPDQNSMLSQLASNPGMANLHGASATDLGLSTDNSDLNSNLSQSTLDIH
# UniProt O96028: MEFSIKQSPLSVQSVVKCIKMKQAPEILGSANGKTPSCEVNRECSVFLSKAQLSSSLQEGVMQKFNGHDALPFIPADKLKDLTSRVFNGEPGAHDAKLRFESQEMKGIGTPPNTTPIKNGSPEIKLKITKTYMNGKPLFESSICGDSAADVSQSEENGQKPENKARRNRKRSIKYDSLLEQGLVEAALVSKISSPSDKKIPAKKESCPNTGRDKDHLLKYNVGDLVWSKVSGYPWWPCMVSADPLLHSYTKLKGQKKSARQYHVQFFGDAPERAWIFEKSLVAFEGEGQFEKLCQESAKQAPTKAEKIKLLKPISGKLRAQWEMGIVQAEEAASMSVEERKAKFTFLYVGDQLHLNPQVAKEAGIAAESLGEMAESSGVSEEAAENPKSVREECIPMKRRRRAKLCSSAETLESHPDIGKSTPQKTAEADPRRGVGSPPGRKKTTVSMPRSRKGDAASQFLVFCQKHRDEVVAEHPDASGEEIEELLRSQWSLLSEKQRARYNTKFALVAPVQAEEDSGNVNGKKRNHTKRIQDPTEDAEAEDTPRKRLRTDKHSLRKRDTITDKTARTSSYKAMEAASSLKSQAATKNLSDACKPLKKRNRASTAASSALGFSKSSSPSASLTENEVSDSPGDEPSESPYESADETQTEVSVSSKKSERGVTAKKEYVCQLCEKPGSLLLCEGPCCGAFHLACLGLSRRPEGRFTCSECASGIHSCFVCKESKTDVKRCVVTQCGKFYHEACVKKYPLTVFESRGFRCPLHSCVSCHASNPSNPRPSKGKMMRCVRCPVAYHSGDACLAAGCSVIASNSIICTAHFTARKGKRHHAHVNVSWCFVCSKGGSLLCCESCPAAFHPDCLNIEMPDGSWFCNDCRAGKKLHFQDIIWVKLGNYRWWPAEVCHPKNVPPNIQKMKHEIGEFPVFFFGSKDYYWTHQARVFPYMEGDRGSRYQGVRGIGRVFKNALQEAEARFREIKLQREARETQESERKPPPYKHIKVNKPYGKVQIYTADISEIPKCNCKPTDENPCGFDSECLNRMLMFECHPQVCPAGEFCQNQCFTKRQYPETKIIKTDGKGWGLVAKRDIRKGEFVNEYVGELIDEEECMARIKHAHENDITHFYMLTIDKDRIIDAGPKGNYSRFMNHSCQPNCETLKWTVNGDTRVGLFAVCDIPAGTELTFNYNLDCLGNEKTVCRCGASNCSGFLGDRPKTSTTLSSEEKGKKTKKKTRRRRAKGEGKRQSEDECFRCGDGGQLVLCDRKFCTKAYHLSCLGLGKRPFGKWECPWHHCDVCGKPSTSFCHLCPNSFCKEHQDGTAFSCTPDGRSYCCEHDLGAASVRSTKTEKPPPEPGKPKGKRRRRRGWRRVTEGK
# UniProt Q99873: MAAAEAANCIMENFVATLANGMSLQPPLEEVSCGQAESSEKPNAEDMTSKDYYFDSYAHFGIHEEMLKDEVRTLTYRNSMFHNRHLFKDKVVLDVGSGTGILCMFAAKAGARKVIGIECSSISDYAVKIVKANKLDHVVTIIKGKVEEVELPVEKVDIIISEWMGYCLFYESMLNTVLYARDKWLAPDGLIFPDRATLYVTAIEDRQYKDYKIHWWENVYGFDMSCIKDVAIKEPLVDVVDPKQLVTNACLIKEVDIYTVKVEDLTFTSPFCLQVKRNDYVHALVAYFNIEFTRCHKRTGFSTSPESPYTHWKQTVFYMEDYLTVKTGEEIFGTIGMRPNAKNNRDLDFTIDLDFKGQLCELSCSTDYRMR
# No constants are given. Whether binding was seen depends on the method and setting. In cells and extracts the contact can be indirect. These calls come from enrichment with a bait or labelling near it, and not all partners need be listed.
# Target: flag-tagged steroid receptor coactivator-3 (SRC-3-3×flag), expressed in myeloma cells (human) (UniProt Q9Y6Q9)
# Assay: affinity purification with mass spectrometry; flag-tagged SRC-3 overexpressed in myeloma cells (MM.1S in the text, LP-1 in the legend), SRC-3 complex immunoprecipitated, silver-stained bands excised for mass spectrometry
row,Substance,binding
1,"p300, endogenous in myeloma cells (from UniProt Q09472 1-2414)",binds
2,"histone-lysine N-methyltransferase NSD2, endogenous in myeloma cells (from UniProt O96028 1-1365)",binds
3,"PRMT1, endogenous in myeloma cells (from UniProt Q99873 1-371)",binds
